Source: PubChem BioAssay AID1259405 (NCATS, 2018)

Assay: 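Silenced genes that increase secreted GFP made by CHO cells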 (primary screen)
System: Chinese hamster CHO-K1 ovary cells with stable secreted eGFP expression
Reagents: single siRNA against mouse genes, 0.8 pmol siRNA per well (2 µl of 400 nM stock)
Timing: 3 days
Read-out: 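Per-well intracellular GFP measured by laser scanning cytometry, plus viability from ATP luminescence, each relative to plate median of non-targeting control wells, in %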
Reading the numbers: GFP, % of control: higher = more GFP per well, higher productivity; viability (ATP), % of control: higher = more viable cells (more ATP)
Hit rule: 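Called active when intracellular GFP, relative to negative control, is at or above 120%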
The whole screen tested about 50,000 reagents; shown is a random part of them. About 4,000 of all reagents (8%) were called active. 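Mouse siRNA library applied to hamster cells; one well for each siRNA.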 A number with no mark means an inactive call. Reagents against one gene are numbered here.

Or52z12 #1
- GFP, % of control: 66.4
- viability (ATP), % of control: 53.5

Or52z12 #2
- GFP, % of control: 81.1
- viability (ATP), % of control: 68.6

Or52z12 #3
- GFP, % of control: 74.2
- viability (ATP), % of control: 79.2

Dll4 #1
- GFP, % of control: 66.3
- viability (ATP), % of control: 88.1

Dll4 #2
- GFP, % of control: 125 (active)
- viability (ATP), % of control: 88.1

Dll4 #3
- GFP, % of control: 76
- viability (ATP), % of control: 58.7

Slco3a1 #1
- GFP, % of control: 55.8
- viability (ATP), % of control: 48.8

Slco3a1 #2
- GFP, % of control: 88.6
- viability (ATP), % of control: 73.9

Slco3a1 #3
- GFP, % of control: 59.4
- viability (ATP), % of control: 67.8

Qpctl #1
- GFP, % of control: 117
- viability (ATP), % of control: 99.4

Qpctl #2
- GFP, % of control: 54.4
- viability (ATP), % of control: 38.8

Qpctl #3
- GFP, % of control: 91.2
- viability (ATP), % of control: 53.8

Mycbpap #1
- GFP, % of control: 42
- viability (ATP), % of control: 57.7

Mycbpap #2
- GFP, % of control: 41
- viability (ATP), % of control: 65.5

Mycbpap #3
- GFP, % of control: 61.4
- viability (ATP), % of control: 59.4

Defb50 #1
- GFP, % of control: 37.5
- viability (ATP), % of control: 44.6

Defb50 #2
- GFP, % of control: 87.3
- viability (ATP), % of control: 62

Defb50 #3
- GFP, % of control: 61.3
- viability (ATP), % of control: 32

Wdr11 #1
- GFP, % of control: 56.3
- viability (ATP), % of control: 60.7

Wdr11 #2
- GFP, % of control: 55.2
- viability (ATP), % of control: 61

Wdr11 #3
- GFP, % of control: 80
- viability (ATP), % of control: 86.8

Magee1 #1
- GFP, % of control: 46.3
- viability (ATP), % of control: 51.4

Magee1 #2
- GFP, % of control: 54.8
- viability (ATP), % of control: 69

Magee1 #3
- GFP, % of control: 120 (active)
- viability (ATP), % of control: 56.8

Quoted from the entries so far (4 entries):
Slco3a1 #3
- GFP, % of control: 59.4
- viability (ATP), % of control: 67.8

Qpctl #1
- GFP, % of control: 117
- viability (ATP), % of control: 99.4

Qpctl #2
- GFP, % of control: 54.4
- viability (ATP), % of control: 38.8

Qpctl #3
- GFP, % of control: 91.2
- viability (ATP), % of control: 53.8

Additional results:
Hpx #1
- GFP, % of control: 105
- viability (ATP), % of control: 99.8

Hpx #2
- GFP, % of control: 86.2
- viability (ATP), % of control: 77.9

Hpx #3
- GFP, % of control: 56.3
- viability (ATP), % of control: 46.7

Tmem179b #1
- GFP, % of control: 112
- viability (ATP), % of control: 47.7

Tmem179b #2
- GFP, % of control: 83.4
- viability (ATP), % of control: 43.4

Tmem179b #3
- GFP, % of control: 67.9
- viability (ATP), % of control: 83.9

Cisd1 #1
- GFP, % of control: 54.6
- viability (ATP), % of control: 58.7

Cisd1 #2
- GFP, % of control: 65.5
- viability (ATP), % of control: 78.3

Cisd1 #3
- GFP, % of control: 110
- viability (ATP), % of control: 108

Slc60a1 #1
- GFP, % of control: 71.8
- viability (ATP), % of control: 58.4

Slc60a1 #2
- GFP, % of control: 131 (active)
- viability (ATP), % of control: 52.1

Slc60a1 #3
- GFP, % of control: 140 (active)
- viability (ATP), % of control: 124

Nlgn3 #1
- GFP, % of control: 53.9
- viability (ATP), % of control: 63.2

Nlgn3 #2
- GFP, % of control: 79.1
- viability (ATP), % of control: 86.2

Nlgn3 #3
- GFP, % of control: 80.6
- viability (ATP), % of control: 109

Zkscan8 #1
- GFP, % of control: 92.5
- viability (ATP), % of control: 98.8

Zkscan8 #2
- GFP, % of control: 53.8
- viability (ATP), % of control: 64.7

Zkscan8 #3
- GFP, % of control: 74.5
- viability (ATP), % of control: 105

Col15a1 #1
- GFP, % of control: 113
- viability (ATP), % of control: 130

Col15a1 #2
- GFP, % of control: 74.8
- viability (ATP), % of control: 88.5

Zfp395 #1
- GFP, % of control: 100
- viability (ATP), % of control: 76.6

Zfp395 #2
- GFP, % of control: 53.2
- viability (ATP), % of control: 66

Zfp395 #3
- GFP, % of control: 80.2
- viability (ATP), % of control: 56.4

4930542C12Rik #1
- GFP, % of control: 73.4
- viability (ATP), % of control: 64

4930542C12Rik #2
- GFP, % of control: 56.9
- viability (ATP), % of control: 63.9

4930542C12Rik #3
- GFP, % of control: 97.7
- viability (ATP), % of control: 86.9

Keap1 #1
- GFP, % of control: 91.6
- viability (ATP), % of control: 72.4

Keap1 #2
- GFP, % of control: 122 (active)
- viability (ATP), % of control: 127
